The other results are listed elsewhere or left out.

Chains of the proteins cited; added tags and fusions are not shown. Lines headed by an entry give the natural chain unless they say otherwise; changes in a name come on top.
UniProt Q9Y3B9: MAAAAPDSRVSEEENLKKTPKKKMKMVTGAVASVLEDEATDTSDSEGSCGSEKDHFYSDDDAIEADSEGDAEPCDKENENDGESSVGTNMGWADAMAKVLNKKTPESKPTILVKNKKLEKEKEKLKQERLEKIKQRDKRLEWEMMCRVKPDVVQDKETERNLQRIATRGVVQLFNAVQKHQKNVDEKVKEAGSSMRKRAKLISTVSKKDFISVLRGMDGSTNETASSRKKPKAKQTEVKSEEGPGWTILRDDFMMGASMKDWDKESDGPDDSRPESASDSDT
UniProt Q9P2E9: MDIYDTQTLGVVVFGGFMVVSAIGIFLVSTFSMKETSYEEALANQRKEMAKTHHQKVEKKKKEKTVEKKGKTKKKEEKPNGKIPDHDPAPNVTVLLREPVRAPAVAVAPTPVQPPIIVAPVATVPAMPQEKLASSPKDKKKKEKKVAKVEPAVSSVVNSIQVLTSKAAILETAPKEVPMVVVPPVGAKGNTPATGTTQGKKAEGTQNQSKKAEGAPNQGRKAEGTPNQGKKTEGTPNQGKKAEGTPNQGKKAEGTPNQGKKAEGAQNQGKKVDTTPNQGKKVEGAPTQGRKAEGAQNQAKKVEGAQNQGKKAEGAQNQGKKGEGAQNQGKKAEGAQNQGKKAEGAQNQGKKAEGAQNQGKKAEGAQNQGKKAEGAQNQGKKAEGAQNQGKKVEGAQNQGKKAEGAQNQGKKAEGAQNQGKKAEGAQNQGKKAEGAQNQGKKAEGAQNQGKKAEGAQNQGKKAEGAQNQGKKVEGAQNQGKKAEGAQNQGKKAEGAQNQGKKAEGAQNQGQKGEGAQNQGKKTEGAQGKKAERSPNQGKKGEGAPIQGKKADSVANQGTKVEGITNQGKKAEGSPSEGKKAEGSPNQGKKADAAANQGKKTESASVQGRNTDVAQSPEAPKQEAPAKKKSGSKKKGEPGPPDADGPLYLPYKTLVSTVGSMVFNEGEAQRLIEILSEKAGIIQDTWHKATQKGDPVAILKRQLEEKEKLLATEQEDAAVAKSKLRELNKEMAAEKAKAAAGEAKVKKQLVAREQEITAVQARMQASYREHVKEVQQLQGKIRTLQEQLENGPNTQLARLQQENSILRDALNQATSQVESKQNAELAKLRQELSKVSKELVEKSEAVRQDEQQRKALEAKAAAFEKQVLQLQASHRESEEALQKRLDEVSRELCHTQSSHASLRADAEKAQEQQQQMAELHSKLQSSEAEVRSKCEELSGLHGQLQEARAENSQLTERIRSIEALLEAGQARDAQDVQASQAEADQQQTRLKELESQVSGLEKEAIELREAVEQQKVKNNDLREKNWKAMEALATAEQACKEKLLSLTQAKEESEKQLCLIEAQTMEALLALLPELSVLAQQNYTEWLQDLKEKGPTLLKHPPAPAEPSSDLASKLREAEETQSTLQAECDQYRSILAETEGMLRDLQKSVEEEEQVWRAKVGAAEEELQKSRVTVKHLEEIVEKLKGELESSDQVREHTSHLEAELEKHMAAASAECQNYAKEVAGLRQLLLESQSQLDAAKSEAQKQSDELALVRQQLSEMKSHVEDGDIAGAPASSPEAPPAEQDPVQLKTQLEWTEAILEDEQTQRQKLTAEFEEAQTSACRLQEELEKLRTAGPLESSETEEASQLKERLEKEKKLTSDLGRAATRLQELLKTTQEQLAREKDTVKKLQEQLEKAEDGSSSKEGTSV
UniProt Q6NW29: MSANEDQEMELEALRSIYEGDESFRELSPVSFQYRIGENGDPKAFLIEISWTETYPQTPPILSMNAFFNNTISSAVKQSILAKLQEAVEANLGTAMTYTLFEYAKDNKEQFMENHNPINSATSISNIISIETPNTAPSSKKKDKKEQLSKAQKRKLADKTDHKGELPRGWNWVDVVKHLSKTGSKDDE
UniProt Q5TA31: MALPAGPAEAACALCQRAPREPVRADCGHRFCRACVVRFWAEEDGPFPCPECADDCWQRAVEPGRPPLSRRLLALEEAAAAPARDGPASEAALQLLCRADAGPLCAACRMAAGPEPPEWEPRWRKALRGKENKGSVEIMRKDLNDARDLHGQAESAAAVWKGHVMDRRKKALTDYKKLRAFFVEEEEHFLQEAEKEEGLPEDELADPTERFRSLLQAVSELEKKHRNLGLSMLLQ
UniProt Q9GZN7, whole entry: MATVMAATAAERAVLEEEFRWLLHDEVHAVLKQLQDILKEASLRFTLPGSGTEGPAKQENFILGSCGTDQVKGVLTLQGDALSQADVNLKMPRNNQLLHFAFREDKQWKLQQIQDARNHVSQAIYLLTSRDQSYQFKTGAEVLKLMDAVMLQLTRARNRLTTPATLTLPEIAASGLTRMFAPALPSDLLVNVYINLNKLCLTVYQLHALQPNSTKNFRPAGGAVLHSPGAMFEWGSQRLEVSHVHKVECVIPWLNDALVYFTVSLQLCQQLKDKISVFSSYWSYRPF
UniProt P51812, whole entry: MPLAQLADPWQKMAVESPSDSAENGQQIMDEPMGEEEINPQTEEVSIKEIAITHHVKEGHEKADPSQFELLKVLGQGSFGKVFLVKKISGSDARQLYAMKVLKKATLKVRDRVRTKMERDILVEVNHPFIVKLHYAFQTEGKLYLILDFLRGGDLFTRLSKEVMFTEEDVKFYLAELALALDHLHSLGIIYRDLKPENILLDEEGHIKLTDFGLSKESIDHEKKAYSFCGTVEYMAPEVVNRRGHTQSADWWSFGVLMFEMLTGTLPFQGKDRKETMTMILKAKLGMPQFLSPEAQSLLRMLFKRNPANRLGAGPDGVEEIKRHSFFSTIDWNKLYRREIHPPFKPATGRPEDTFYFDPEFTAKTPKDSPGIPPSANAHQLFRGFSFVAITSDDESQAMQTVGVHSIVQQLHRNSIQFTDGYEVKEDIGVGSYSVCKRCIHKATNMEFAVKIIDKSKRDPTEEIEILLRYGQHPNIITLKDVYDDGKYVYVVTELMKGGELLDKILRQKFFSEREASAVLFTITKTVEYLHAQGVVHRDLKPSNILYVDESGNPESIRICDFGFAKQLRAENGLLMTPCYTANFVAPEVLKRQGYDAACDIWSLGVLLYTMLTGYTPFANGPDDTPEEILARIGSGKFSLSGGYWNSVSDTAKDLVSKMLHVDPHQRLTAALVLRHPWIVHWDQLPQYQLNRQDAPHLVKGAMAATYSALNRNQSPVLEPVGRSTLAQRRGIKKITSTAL
UniProt Q96T51: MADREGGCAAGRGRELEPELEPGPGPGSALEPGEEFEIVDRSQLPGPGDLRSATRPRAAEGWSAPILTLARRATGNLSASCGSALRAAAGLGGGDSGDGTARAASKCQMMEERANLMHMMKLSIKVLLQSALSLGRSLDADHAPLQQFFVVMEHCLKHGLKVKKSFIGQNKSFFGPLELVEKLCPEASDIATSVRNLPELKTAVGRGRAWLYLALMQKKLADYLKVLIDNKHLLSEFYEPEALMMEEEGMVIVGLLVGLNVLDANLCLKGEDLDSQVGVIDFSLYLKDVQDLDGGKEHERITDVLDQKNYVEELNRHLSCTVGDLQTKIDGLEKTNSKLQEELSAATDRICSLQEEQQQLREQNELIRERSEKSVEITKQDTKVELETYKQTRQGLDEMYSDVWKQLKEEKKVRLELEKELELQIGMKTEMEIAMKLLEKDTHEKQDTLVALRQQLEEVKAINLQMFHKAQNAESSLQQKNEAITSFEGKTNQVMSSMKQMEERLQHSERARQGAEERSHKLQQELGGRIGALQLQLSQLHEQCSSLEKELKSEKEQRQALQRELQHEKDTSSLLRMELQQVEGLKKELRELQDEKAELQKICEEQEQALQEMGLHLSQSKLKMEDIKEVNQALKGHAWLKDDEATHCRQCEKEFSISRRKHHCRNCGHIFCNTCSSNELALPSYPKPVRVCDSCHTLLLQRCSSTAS
UniProt Q5VTR2, whole entry: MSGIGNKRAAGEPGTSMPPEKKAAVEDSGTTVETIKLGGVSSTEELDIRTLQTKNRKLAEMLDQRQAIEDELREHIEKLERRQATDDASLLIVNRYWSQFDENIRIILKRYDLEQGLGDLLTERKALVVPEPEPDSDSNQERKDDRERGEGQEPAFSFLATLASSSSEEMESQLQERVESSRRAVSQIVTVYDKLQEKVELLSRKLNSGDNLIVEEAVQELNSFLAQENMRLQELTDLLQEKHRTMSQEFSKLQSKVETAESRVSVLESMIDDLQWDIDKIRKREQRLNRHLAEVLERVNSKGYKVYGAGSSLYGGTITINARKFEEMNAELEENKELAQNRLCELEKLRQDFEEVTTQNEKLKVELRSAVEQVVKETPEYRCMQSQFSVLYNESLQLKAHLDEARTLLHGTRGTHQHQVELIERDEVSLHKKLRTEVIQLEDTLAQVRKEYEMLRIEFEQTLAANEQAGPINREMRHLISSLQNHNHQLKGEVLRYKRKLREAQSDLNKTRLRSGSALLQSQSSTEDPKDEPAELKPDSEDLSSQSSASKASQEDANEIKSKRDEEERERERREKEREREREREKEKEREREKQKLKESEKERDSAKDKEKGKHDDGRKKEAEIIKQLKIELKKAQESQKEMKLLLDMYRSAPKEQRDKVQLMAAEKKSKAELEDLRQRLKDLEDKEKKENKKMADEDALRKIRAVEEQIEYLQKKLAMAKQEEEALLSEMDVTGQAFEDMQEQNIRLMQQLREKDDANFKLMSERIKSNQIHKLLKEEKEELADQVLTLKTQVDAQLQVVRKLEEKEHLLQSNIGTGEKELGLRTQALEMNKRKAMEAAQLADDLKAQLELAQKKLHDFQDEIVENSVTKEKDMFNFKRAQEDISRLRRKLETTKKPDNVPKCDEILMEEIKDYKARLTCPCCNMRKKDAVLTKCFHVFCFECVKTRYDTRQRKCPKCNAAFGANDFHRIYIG
UniProt P06702: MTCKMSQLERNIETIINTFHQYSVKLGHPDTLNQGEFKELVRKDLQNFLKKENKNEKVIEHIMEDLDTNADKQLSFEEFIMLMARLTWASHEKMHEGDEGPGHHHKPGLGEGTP
UniProt Q9Y230, whole entry: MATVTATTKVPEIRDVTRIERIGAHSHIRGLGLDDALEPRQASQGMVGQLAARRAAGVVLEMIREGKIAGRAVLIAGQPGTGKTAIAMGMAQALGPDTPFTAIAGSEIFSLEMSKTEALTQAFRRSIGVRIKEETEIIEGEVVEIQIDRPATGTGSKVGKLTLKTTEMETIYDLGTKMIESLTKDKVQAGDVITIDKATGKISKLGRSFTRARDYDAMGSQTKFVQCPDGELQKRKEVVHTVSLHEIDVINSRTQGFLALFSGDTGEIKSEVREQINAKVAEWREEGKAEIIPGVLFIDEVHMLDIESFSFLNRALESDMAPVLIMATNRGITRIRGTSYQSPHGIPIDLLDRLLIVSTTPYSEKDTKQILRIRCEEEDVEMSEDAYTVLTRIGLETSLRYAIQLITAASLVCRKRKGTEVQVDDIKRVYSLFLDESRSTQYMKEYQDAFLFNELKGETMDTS
UniProt Q8ND24: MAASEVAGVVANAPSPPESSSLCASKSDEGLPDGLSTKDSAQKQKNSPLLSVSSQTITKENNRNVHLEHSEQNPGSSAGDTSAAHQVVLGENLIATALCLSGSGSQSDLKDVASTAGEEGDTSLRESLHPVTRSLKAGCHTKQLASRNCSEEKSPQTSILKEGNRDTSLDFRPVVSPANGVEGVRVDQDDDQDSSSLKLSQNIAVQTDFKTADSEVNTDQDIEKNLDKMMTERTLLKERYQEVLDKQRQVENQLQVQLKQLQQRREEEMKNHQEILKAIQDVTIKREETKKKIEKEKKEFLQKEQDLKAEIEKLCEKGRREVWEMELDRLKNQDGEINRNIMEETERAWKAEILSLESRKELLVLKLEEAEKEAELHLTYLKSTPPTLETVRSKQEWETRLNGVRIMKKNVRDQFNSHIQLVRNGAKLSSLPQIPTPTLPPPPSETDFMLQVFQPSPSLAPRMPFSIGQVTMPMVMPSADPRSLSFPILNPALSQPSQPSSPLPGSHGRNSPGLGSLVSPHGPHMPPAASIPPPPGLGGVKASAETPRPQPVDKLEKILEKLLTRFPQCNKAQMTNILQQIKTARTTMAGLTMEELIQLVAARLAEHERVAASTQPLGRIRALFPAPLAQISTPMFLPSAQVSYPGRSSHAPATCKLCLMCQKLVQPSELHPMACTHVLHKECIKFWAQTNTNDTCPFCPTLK
UniProt Q86UA6: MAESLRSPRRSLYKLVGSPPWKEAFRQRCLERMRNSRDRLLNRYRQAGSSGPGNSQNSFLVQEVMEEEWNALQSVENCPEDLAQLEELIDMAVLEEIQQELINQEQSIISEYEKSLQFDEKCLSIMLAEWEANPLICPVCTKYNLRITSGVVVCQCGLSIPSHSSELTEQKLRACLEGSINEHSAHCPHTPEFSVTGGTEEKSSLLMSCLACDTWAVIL
UniProt Q8IUW5: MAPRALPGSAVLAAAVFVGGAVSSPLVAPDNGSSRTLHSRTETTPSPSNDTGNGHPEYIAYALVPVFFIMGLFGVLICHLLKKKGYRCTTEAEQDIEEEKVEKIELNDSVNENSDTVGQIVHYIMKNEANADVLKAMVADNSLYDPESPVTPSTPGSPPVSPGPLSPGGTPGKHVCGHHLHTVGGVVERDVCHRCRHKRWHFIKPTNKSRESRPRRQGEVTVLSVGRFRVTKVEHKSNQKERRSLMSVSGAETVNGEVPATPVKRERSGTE

This note sets out measurements from the supplement of paper PMC7666118.

Compound in this experiment: COc1ccc(Cn2ccc3ccc(C(=O)NO)cc32)cc1
Description: dose-dependent thermal stabilisation call (2D-TPP, DLPTP, 10% FDR) (binary (1 = stabilised)); higher = stabilised by the compound. To be noted: system: HL-60 intact cells; concentration range 0.04-10 µM.
Take RRP15 (UniProt Q9Y3B9): the “dose-dependent thermal stabilisation call” value was inactive: 0.

In the case of SAMHD1 (UniProt Q9Y3Z3), the “dose-dependent thermal stabilisation call” value is inactive: 0. As for RPS18 (UniProt P62269), the figure is inactive: 0. Regarding RPS15A (UniProt P62244), the “dose-dependent thermal stabilisation call” value is inactive: 0. As for RRBP1 (UniProt Q9P2E9), the “dose-dependent thermal stabilisation call” value is inactive: 0. The figure for RWDD4A (UniProt Q6NW29) is inactive: 0; for RNF187 (UniProt Q5TA31) it is inactive: 0; for ROGDI (UniProt Q9GZN7) it is inactive: 0. The figure for RPS23 (UniProt P62266) is inactive: 0; for RPS6KA3 (UniProt P51812) it is active: 1. As for RPL18A (UniProt Q02543), the figure is inactive: 0. For RXRA (UniProt P19793), the “dose-dependent thermal stabilisation call” value is inactive: 0. As for RBPJ (UniProt Q06330), the figure is inactive: 0. As for SAFB (UniProt Q15424), the figure is inactive: 0; as for RFFL (UniProt Q8WZ73), inactive: 0; as for RYBP (UniProt Q8N488), inactive: 0. The figure for RPL4 (UniProt P36578) is inactive: 0; for RPL10 (UniProt P27635) it is inactive: 0.

Take RUFY1 (UniProt Q96T51): the “dose-dependent thermal stabilisation call” value is inactive: 0. As for REPIN1 (UniProt Q9BWE0), the figure is inactive: 0; as for RPS10 (UniProt P46783), inactive: 0. As for RPS6KB1 (UniProt P23443), the figure is inactive: 0. The figure for RPP14 (UniProt O95059) is inactive: 0; for RNF20 (UniProt Q5VTR2) it is inactive: 0. With RCOR1 (UniProt Q9UKL0), the “dose-dependent thermal stabilisation call” value is inactive: 0. As for RPS2 (UniProt P15880), the figure is inactive: 0; as for RPS11 (UniProt P62280), inactive: 0. As for RNGTT (UniProt O60942), the figure is inactive: 0; as for RPS19 (UniProt P39019), inactive: 0. The figure for RFWD3 (UniProt Q6PCD5) is inactive: 0; for S100A9 (UniProt P06702) it is inactive: 0; for RFC3 (UniProt P40938) it is inactive: 0.

As to RNF121 (UniProt Q9H920), the “dose-dependent thermal stabilisation call” value is inactive: 0. As for RUVBL2 (UniProt Q9Y230), the figure is inactive: 0; as for S100A4 (UniProt P26447), inactive: 0. The figure for RNF214 (UniProt Q8ND24) is inactive: 0; for RPAIN (UniProt Q86UA6) it is inactive: 0; for RELL1 (UniProt Q8IUW5) it is inactive: 0.
